Cleaved PARP after 72 h of treatment

Values as published with doi:10.1371/journal.pone.0140310, rounded.

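The test systems are human melanoma cell lines, treated with two drugs together for 72 h and then stained and imaged. Each value is the cleaved-PARP-positive fraction of nuclei relative to DMSO-treated wells, in %, so that 100 equals the control and higher values mean more apoptosis. Every drug was used at one fixed concentration, the higher of two screened. The file gives one value for each pair and line, without errors, so small differences may be noise. Basal and induced levels differ widely between cell lines.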 Only some of the drugs and lines screened are listed, without regard to their results.

Every entry is a combination with AS-252424 at 5000 nM: O=C1NC(=O)/C(=C/c2ccc(-c3ccc(F)cc3O)o2)S1

{"second drug": "Cn1cncc1[C@@](N)(c1ccc(Cl)cc1)c1ccc2c(c1)c(-c1cccc(Cl)c1)cc(=O)n2C at 50 nM", "C32": 90.5, "COLO 800": 174, "UACC-257": 48.4, "LOX IMVI": 159, "WM3619": 103, "SK-MEL-5": 402}
{"second drug": "CN(c1ncccc1CNc1nc(Nc2ccc3c(c2)CC(=O)N3)ncc1C(F)(F)F)S(C)(=O)=O at 400 nM", "C32": 91.2, "COLO 800": 84.2, "UACC-257": 55.2, "LOX IMVI": 43.1, "WM3619": 116, "SK-MEL-5": 218}
{"second drug": "Oc1cc(-c2nc(-c3ccccc3)[nH]c2-c2ccncc2)ccc1Cl at 1000 nM", "C32": 115, "COLO 800": 126, "UACC-257": 48.0, "LOX IMVI": 70.5, "WM3619": 115, "SK-MEL-5": 272}
{"second drug": "Cn1cc(C2=C(c3cn(C4CCN(Cc5ccccn5)CC4)c4ccccc34)C(=O)NC2=O)c2ccccc21 at 4000 nM", "C32": 83.5, "COLO 800": 195, "UACC-257": 46.6, "LOX IMVI": 93.4, "WM3619": 96.2, "SK-MEL-5": 196}
{"second drug": "Cn1cnc2c(F)c(Nc3ccc(Br)cc3Cl)c(C(=O)NOCCO)cc21 at 75 nM", "C32": 95.7, "COLO 800": 87.7, "UACC-257": 55.4, "LOX IMVI": 80.9, "WM3619": 148, "SK-MEL-5": 654}
{"second drug": "COc1cc(N2CCC(N3CCN(C)CC3)CC2)ccc1Nc1ncc(Cl)c(Nc2ccccc2S(=O)(=O)C(C)C)n1 at 400 nM", "C32": 105, "COLO 800": 52.6, "UACC-257": 37.1, "LOX IMVI": 64.8, "WM3619": 152, "SK-MEL-5": 76.3}
{"second drug": "COCC[n+]1c2c(n(Cc3cnccn3)c1C)C(=O)c1ccccc1C2=O at 2 nM", "C32": 85.7, "COLO 800": 122, "UACC-257": 81.6, "LOX IMVI": 136, "WM3619": 98.3, "SK-MEL-5": 264}
{"second drug": "CN(C)S(=O)(=O)c1ccc2c(c1)/C(=C/c1cc3c([nH]1)CCCC3)C(=O)N2 at 2000 nM", "C32": 102, "COLO 800": 414, "UACC-257": 23.3, "LOX IMVI": 152, "WM3619": 124, "SK-MEL-5": 48.2}
{"second drug": "CC1(C)CCC(c2ccc(Cl)cc2)=C(CN2CCN(c3ccc(C(=O)NS(=O)(=O)c4ccc(N[C@H](CCN5CCOCC5)CSc5ccccc5)c(S(=O)(=O)C(F)(F)F)c4)cc3)CC2)C1 at 2000 nM", "C32": 228, "COLO 800": 367, "UACC-257": 1140, "LOX IMVI": 80.9, "WM3619": 133, "SK-MEL-5": 183}
{"second drug": "Nc1ncn([C@H]2C[C@H](O)[C@@H](CO)O2)c(=O)n1 at 500 nM", "C32": 85.7, "COLO 800": 82.3, "UACC-257": 48.7, "LOX IMVI": 135, "WM3619": 134, "SK-MEL-5": 237}
{"second drug": "C=CCn1c(=O)c2cnc(Nc3ccc(N4CCN(C)CC4)cc3)nc2n1-c1cccc(C(C)(C)O)n1 at 100 nM", "C32": 99.4, "COLO 800": 277, "UACC-257": 21.7, "LOX IMVI": 31.2, "WM3619": 318, "SK-MEL-5": 225}
{"second drug": "CCN(CC)CCCCNc1ncc2cc(-c3cc(OC)cc(OC)c3)c(NC(=O)NC(C)(C)C)nc2n1 at 500 nM", "C32": 86.4, "COLO 800": 104, "UACC-257": 41.7, "LOX IMVI": 68.1, "WM3619": 105, "SK-MEL-5": 103}
{"second drug": "C=C(c1ccc(C(=O)O)cc1)c1cc2c(cc1C)C(C)(C)CCC2(C)C at 10000 nM", "C32": 73.8, "COLO 800": 32.8, "UACC-257": 31.2, "LOX IMVI": 252, "WM3619": 127, "SK-MEL-5": 208}
{"second drug": "COc1ccc2c(c1)CCC1C2CCC2(C)C(NCCCCCCN3C(=O)C=CC3=O)CCC12 (stereo not shown) at 2000 nM", "C32": 145, "COLO 800": 53.7, "UACC-257": 43.7, "LOX IMVI": 60.6, "WM3619": 155, "SK-MEL-5": 243}
{"second drug": "Cn1c(=O)n(-c2ccc(C(C)(C)C#N)cc2)c2c3cc(-c4cnc5ccccc5c4)ccc3ncc21 at 20 nM", "C32": 87.7, "COLO 800": 144, "UACC-257": 83.1, "LOX IMVI": 94.3, "WM3619": 117, "SK-MEL-5": 298}
{"second drug": "Cc1cc(Nc2cc(N3CCN(C)CC3)nc(/C=C/c3ccccc3)n2)n[nH]1 at 200 nM", "C32": 200, "COLO 800": 50.1, "UACC-257": 62.2, "LOX IMVI": 226, "WM3619": 93.7, "SK-MEL-5": 63.8}
{"second drug": "Cn1c(Nc2ccc(C(F)(F)F)cc2)nc2cc(Oc3ccnc(-c4ncc(C(F)(F)F)[nH]4)c3)ccc21 at 400 nM", "C32": 175, "COLO 800": 114, "UACC-257": 63.7, "LOX IMVI": 160, "WM3619": 278, "SK-MEL-5": 1780}
{"second drug": "CN(NC(=O)CC(=O)NN(C)C(=S)c1ccccc1)C(=S)c1ccccc1 at 30 nM", "C32": 430, "COLO 800": 88.8, "UACC-257": 45.7, "LOX IMVI": 140, "WM3619": 896, "SK-MEL-5": 392}
{"second drug": "NCC(=O)Nc1ccc(-n2nc(C(F)(F)F)cc2-c2ccc3c(ccc4ccccc43)c2)cc1 at 5000 nM", "C32": 98.9, "COLO 800": 69.8, "UACC-257": 115, "LOX IMVI": 121, "WM3619": 1700, "SK-MEL-5": 643}